Test results: article doi:10.1101/2024.06.05.597537
Results are given in words; binding and its absence hold for the method and conditions named. For some of these results: In cells and extracts the contact can be indirect. Some results given as binding are weak or reduced against the parent protein; the word gives no strength.

Sequences of proteins named here, by UniProt entry; tags and fusion partners are left off. A change or cut given only in a name is not applied to a line headed by its entry.
UniProt P19484, whole entry: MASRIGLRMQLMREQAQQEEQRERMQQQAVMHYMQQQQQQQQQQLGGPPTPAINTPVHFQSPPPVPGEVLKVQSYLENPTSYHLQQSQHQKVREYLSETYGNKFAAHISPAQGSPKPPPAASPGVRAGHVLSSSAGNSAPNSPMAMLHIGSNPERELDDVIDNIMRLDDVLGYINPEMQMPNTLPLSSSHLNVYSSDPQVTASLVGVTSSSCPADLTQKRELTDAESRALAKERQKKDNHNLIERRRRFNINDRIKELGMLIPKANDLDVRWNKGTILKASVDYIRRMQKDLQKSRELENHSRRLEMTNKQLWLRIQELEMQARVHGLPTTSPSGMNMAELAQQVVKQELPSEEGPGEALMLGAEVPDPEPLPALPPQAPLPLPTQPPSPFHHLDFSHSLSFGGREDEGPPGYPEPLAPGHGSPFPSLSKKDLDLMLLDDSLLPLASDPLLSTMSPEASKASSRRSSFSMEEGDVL
UniProt Q9NQU5, whole entry: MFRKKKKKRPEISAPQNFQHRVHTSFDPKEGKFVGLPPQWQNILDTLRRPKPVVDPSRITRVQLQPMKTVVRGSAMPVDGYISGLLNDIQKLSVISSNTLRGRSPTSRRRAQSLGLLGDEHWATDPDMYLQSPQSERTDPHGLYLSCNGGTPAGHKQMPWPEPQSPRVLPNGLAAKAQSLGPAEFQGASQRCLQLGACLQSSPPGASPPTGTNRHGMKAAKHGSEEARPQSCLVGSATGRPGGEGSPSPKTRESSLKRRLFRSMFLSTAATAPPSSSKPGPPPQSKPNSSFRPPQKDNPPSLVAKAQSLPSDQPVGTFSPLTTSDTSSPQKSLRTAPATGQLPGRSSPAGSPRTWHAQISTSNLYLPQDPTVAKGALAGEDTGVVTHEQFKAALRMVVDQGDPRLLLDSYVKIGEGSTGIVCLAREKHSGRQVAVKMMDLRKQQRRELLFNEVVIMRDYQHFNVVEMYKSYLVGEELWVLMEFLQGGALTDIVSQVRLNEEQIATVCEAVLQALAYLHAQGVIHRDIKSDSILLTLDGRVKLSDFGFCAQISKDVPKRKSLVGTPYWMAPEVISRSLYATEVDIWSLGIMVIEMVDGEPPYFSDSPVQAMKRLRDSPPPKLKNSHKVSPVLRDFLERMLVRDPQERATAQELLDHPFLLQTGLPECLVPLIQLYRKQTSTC

Columns and labels:
GFP-TFEB S467A (human) = GFP-TFEB S467A (human) (UniProt P19484); experiment: fluorescence cross-correlation spectroscopy
[1] = target: GFP-TFEB WT (Transcription Factor EB) (human) (UniProt P19484); experiment: fluorescence cross-correlation spectroscopy
[2] = target: GFP-TFEB WT (Transcription Factor EB) (human) (UniProt P19484); experiment: co-IP

binding (GFP-TFEB S467A (human)) | binding [1] | binding [2] | Substance
no binding | binds | – | mCherry-tagged PAK6 WT (p21 activated kinase 6) (from UniProt Q9NQU5 1-681) (enzyme)
no binding | – | – | mCherry-tagged PAK6 S531N (constitutively active) (from UniProt Q9NQU5 1-681) (enzyme)
– | – | binds | Flag-PAK6 WT (from UniProt Q9NQU5 1-681) (enzyme)
